Assay results published in article PMC7465502.

Target: T1, Tristetraprolin (TTP) (Homo sapiens) (UniProt P26651)
T1 sequence (looked up): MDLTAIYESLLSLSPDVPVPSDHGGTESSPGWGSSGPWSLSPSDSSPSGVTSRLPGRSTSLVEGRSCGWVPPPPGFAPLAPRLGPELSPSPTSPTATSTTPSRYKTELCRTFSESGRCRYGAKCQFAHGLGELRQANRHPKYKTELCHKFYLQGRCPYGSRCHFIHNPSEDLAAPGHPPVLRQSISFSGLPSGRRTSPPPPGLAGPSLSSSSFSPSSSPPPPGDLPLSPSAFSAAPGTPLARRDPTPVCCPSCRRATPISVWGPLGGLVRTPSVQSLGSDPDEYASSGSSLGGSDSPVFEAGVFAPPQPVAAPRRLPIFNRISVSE
Experiment: EMSA
Settings: RNA EMSA (LightShift Chemiluminescent kit, binding buffer composition not given): 20 fmol biotinylated RNA, 4 ug or 5 ug (Methods) cytoplasmic extract, protein in a lysate after overexpression, residues 1-326, label: biotin

Q: Does “GCUAAGGUUAAGCAUUAAUUAGCAAGCAGCACCUUGA [mutDR4-EMSA]” bind?
A: Result: no binding

Q: Does “GCUAAGGUUAAUUUAUUAAUUAUUUAAUUUAUUUACCUUG [wtDR4-EMSA]” bind (complex reduced by anti-TTP antibody, not by control antibody)?
A: Result: binds

Q: Does “UAGUCAUGGAAGGAUCAGCAUGCAGGUAGUCAUUCCAGG [mutDR5-EMSA]” bind?
A: Result: no binding

Q: Does “UAGUCAUGGAAGGAUCAUUUAUGCAGGUAGUCAUUCCAGG [wtDR5-EMSA]” bind (complex reduced compared to DR4)?
A: Result: binds

At least one result comes from cells or an extract, where the contact may be indirect. Negatives hold for the conditions tested. At least one verdict was read from the data and is not stated in words by the source. Protein sequences can lack the tags named with them. For at least one entry, the source does not settle the construct or the ends of the probe.
